{
  "source": "PubChem BioAssay AID493014",
  "about": "(National Center for Advancing Translational Sciences (NCATS), 2011)",
  "note": "Out of some 340,000 compounds screened, about 170 (0.05%) were called active. This list was built around the results that the source calls inconclusive (neither active nor inactive); the mix of calls is not that of the screen. The call rests on the fitted dose curve; in most records, active means well fitted inhibition curve with a large enough effect in the signal ratio, with a control signal flat (not every such curve was filed as active); inconclusive means small, poorly fitted or top-dose-only effect, or effect the other way, or a change in a side signal; inactive means flat fitted curve, though single readings scatter; the % refers to the signal ratio. Potencies beside an inconclusive call are fits to weak or partial responses and may not hold up. Potency means the concentration at half of the fitted maximal effect.",
  "data": [
    {"experiment": "qHTS Assay to Find Inhibitors of Chronic Active B-Cell Receptor Signaling;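 on activity change, negative = inhibition: plate controls were basal doxycycline-induced cells for no effect and cells given 10 µM MG132 for full effect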", "conditions": "ABC-DLBCL IkBa-CBG/CBR reporter, luminescence ratio (green luciferase fused to IkBa over red control in TMD8 lymphoma cells), 4 h; activity change, negative = inhibition: at 46.1 µM (top of the series)", "method_in_brief": "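TMD8 human ABC-DLBCL cells with doxycycline-inducible IκBα–green luciferase fusion and unfused red luciferase, in 0.5% FBS medium; compounds up to 46 uM, 4 h at 37C. Green/red luminescence ratio, filter-overlap corrected, fitted to concentration-response curves.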", "values": [
      {"smiles": "CCOCCOCCC(C(=O)OCC)P(=O)(c1ccccc1)c1ccccc1", "note": "(stereo unspecified)", "activity change, negative = inhibition": "inconclusive: 12.6%"},
      {"smiles": "Cc1ccc2nc(CSc3nc(C)nc4c3oc3ccccc34)[nH]c2c1", "activity change, negative = inhibition": "inconclusive: 13.2%"},
      {"smiles": "COc1ccc(NC(=O)N(C)C[C@H]2Oc3ccc(NC(=O)c4ccncc4)cc3C(=O)N([C@H](C)CO)C[C@@H]2C)cc1", "activity change, negative = inhibition": "inconclusive: 2.16%"},
      {"smiles": "O=C(/C=C/c1ccccc1)Nc1sc2c(c1C(=O)O)CCC2", "Potency": "inconclusive: 3.98 µM [rising, partial curve, poor fit]"},
      {"smiles": "O=C(O)c1ccccc1S(=O)(=O)CC(=O)N1CCCCC1", "activity change, negative = inhibition": "inconclusive: 5.94%"},
      {"smiles": "CCOC(=O)Nc1nnc(/C=C/c2ccc(OC)cc2)s1", "activity change, negative = inhibition": "inactive: -16.8%"},
      {"smiles": "CC1(C)Cc2c(cnn2-c2cccc(F)c2)C(NC(=O)CCc2cnccn2)C1", "note": "(stereo unspecified)", "activity change, negative = inhibition": "inactive: 3.88%"},
      {"smiles": "CC(C)(C)OC(=O)N1CCC2(CC1)Oc1ccc(F)cc1C(=O)C21CC(c2cccnc2)=NO1", "note": "(stereo unspecified)", "activity change, negative = inhibition": "inactive: -4.02%"},
      {"smiles": "CN1CCc2c(sc3nc(SCC(N)=O)n(-c4ccc(Cl)cc4)c(=O)c23)C1", "activity change, negative = inhibition": "inactive: -7.35%"},
      {"smiles": "C/C(=N\\Nc1ccc(Cl)c(C(=O)O)c1)c1cccc([N+](=O)[O-])c1", "Potency": "inconclusive: 22.4 µM [falling, single point]"},
      {"smiles": "CCOC(=O)C(=CNc1cc(C)nn1-c1ccccc1)C(=O)OCC", "activity change, negative = inhibition": "inconclusive: 1.57%"},
      {"smiles": "Cc1ccc(NC(=O)CSc2nc3ccccc3nc2N2CCOCC2)cc1", "activity change, negative = inhibition": "inactive: -25.8%"},
      {"smiles": "Cc1ccc(-c2cc(C(=O)N/N=C/C(Br)=C/c3ccccc3)n[nH]2)o1", "Potency": "inconclusive: 35.5 µM [falling, single point]"},
      {"smiles": "CC(OC(=O)c1n[nH]c2ccccc12)C(=O)NC1CCCCC1C", "note": "(stereo unspecified)", "activity change, negative = inhibition": "inconclusive: -4.13%"},
      {"smiles": "C=C1C2(C(=O)Nc3ccc(SC(F)F)cc3)CCC(C2)C1(C)C", "note": "(stereo unspecified)", "activity change, negative = inhibition": "inconclusive: 4.4%"},
      {"smiles": "Cc1cc(C)c([N+](=O)[O-])cc1-c1ccc(/C=N/NC(=O)c2nonc2N)o1", "Potency": "inconclusive: 18.4 µM [rising, single point]"},
      {"smiles": "Cc1ccc2cc3cc(C(=O)NCc4ccco4)oc3nc2c1", "activity change, negative = inhibition": "inconclusive: -26.3%"},
      {"smiles": "CC(=O)c1c(C)[nH]c(C(=O)OCC(=O)Nc2cccc(S(=O)(=O)N3CCCC3)c2)c1C", "activity change, negative = inhibition": "inactive: -21.4%"},
      {"smiles": "Cc1ccc(C(c2nnnn2Cc2cccs2)N2CCN(Cc3ccc4c(c3)OCO4)CC2)cc1", "note": "(stereo unspecified)", "activity change, negative = inhibition": "inactive: 4.44%"},
      {"smiles": "CCN(CC)P(=O)(Nc1ccc(SC(F)F)cc1)c1ccc(N(C)C)cc1NC(=O)c1ccco1", "note": "(stereo unspecified)", "activity change, negative = inhibition": "inconclusive: 15.1%"},
      {"smiles": "O=C(NCCSc1c[nH]c2ccccc12)c1c(F)cccc1F", "activity change, negative = inhibition": "inconclusive: -22.3%"},
      {"smiles": "CCC1CCCCN1CCCNC(=O)c1ccc2c(c1)N(Cc1ccc(F)cc1)C(=O)c1ccccc1S2=O", "note": "(stereo unspecified)", "activity change, negative = inhibition": "inconclusive: -7.52%"},
      {"smiles": "c1csc(CN2CCN(Cc3cccs3)C2c2cccs2)c1", "Potency": "inconclusive: 2.91 µM [falling, partial curve, poor fit]"},
      {"smiles": "CN(C)c1oc(COc2ccc(F)cc2)nc1C#N", "activity change, negative = inhibition": "inconclusive: 2.59%"},
      {"smiles": "S=C(c1ccc(-c2ccccc2Cl)o1)N1CCOCC1", "activity change, negative = inhibition": "inconclusive: 26.3%"},
      {"smiles": "Clc1ccccc1CSc1nc2ccncc2[nH]1", "Potency": "inconclusive: 25.9 µM [falling, single point]"},
      {"smiles": "CCn1c(SCC(=O)N2CCCc3ccccc32)nc2c1c(=O)n(C)c(=O)n2C", "activity change, negative = inhibition": "inconclusive: 14.3%"},
      {"smiles": "CC1CN(C(=O)CCCN2C(=O)c3ccccc3C2=O)CC(C)O1", "note": "(stereo unspecified)", "activity change, negative = inhibition": "inconclusive: 11.2%"},
      {"smiles": "CCCc1cc(SCC(=O)Nc2c(C)n(C)n(-c3ccccc3)c2=O)n2c(nc3ccccc32)c1C#N", "Potency": "inconclusive: 23.1 µM [rising, single point]"},
      {"smiles": "O=c1c2cc3c(=O)n(CC4CCCO4)c(=O)c3cc2c(=O)n1CC1CCCO1", "note": "(stereo unspecified)", "activity change, negative = inhibition": "inconclusive: -1.59%"},
      {"smiles": "C#CCn1cc(/C=N/NC(=O)c2cc3ccccc3o2)c2ccccc21", "activity change, negative = inhibition": "inconclusive: -2.16%"},
      {"smiles": "COc1ccc(C2C(C(=O)c3ccco3)=C(O)C(=O)N2CCOCCO)cc1OC", "note": "(stereo unspecified)", "activity change, negative = inhibition": "inconclusive: 3.69%"},
      {"smiles": "S=C(NNc1ccnc2cc(Cl)ccc12)Nc1ccccc1Cl", "activity change, negative = inhibition": "inconclusive: 1.28%"},
      {"smiles": "Cc1c(C(=O)O)sc2nc(CSc3nnc(-c4ccc(F)cc4)n3C)[nH]c(=O)c12", "activity change, negative = inhibition": "inconclusive: 6.09%"},
      {"smiles": "COc1ccc(C(=O)n2c(N)nc3ccccc32)cc1OC", "Potency": "inconclusive: 25.1 µM [falling, single point]"},
      {"smiles": "COc1ccc(CCNC(=O)COC(=O)/C=C/c2cc(OC)ccc2OC)cc1", "activity change, negative = inhibition": "inconclusive: -3.57%"},
      {"smiles": "COc1ccc(NC(=O)c2cc(-c3ccc(C)o3)nc3ccccc23)cc1OC", "activity change, negative = inhibition": "inactive: 3.7%"},
      {"smiles": "COC(=O)c1cc(CNC(=O)c2ccccc2OCc2c(C)noc2C)ccc1OC", "activity change, negative = inhibition": "inconclusive: -6.53%"},
      {"smiles": "FC(F)(F)c1cccc(NC(=S)N2CCN(c3cccc(C(F)(F)F)c3)CC2)c1", "activity change, negative = inhibition": "inactive: -0.679%"},
      {"smiles": "CCNc1nc(NCC)nc(OCCNS(=O)(=O)c2cc(C)ccc2C)n1", "activity change, negative = inhibition": "inconclusive: 0.475%"},
      {"smiles": "Cc1nn(CCCC(=O)N2CCN(c3ccc(F)cc3)CC2)c(C)c1[N+](=O)[O-]", "activity change, negative = inhibition": "inconclusive: -24.8%"},
      {"smiles": "CC(=O)Nc1ccc(NC(=O)Oc2ccccc2)cc1", "activity change, negative = inhibition": "inactive: -9.56%"},
      {"smiles": "COc1ccc(S(=O)(=O)N2CCCCC2)cc1NC(=O)c1ccc(OC)c(OC)c1", "activity change, negative = inhibition": "inconclusive: -29.5%"},
      {"smiles": "COC(=O)C1=C(C)Nc2c(c(=O)n(C)c(=O)n2C)C1c1ccc(C)cc1", "note": "(stereo unspecified)", "Potency": "inconclusive: 4.47 µM [falling, partial curve]"},
      {"smiles": "CCOC(=O)Nc1ccc2c(c1)Nc1ccccc1S2", "activity change, negative = inhibition": "inconclusive: -12.6%"},
      {"smiles": "Cc1csc(NC(=O)CSc2nnc(Cn3c(=O)sc4ccccc43)n2-c2ccccc2)n1", "activity change, negative = inhibition": "inconclusive: 6.01%"},
      {"smiles": "O=C1c2ccccc2N2C(=O)c3ccccc3[C@H]2N1c1ccccc1", "activity change, negative = inhibition": "inactive: 10.5%"},
      {"smiles": "CC1(C)CC(=O)C(C(C2=C(O)CC(C)(C)CC2=O)c2ccc(Br)s2)C(=O)C1", "note": "(stereo unspecified)", "Potency": "inconclusive: 20.6 µM [rising, partial curve, poor fit]"},
      {"smiles": "Cc1ccc(S(=O)(=O)n2ccc3c2CCCC3=O)cc1", "activity change, negative = inhibition": "inconclusive: -11.4%"},
      {"smiles": "CCC(C)(C(=O)NC1CCCCC1)N(C(=O)c1ccccn1)c1ccc(C)cc1", "note": "(stereo unspecified)", "activity change, negative = inhibition": "inconclusive: -28.1%"},
      {"smiles": "Cc1occc1C(=O)Nc1nccs1", "activity change, negative = inhibition": "inconclusive: 9.58%"}
    ]}
  ]
}
